These are yes or no findings as the source states them, for the method shown. Some binding calls cover weakened binding; strength is not graded here.
T1: recombinant 6x-His-tagged p32 protein (gC1qR/p32) (UniProt Q07021 74-282)
T1 construct: Predominantly (>97%) a trimer by sedimentation velocity; also called gC1q/p32 receptor; recombinant p32
T1 sequence (looked up): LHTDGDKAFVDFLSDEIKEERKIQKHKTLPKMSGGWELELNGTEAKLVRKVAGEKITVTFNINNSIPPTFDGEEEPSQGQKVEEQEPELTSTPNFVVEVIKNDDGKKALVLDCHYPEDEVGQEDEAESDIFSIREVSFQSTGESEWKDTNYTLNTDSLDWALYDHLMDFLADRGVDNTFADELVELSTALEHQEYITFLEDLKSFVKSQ

T2: ligand-binding b1b2 domain of the cell and tissue penetration receptor NRP-1 (UniProt O14786)
T2 sequence (looked up): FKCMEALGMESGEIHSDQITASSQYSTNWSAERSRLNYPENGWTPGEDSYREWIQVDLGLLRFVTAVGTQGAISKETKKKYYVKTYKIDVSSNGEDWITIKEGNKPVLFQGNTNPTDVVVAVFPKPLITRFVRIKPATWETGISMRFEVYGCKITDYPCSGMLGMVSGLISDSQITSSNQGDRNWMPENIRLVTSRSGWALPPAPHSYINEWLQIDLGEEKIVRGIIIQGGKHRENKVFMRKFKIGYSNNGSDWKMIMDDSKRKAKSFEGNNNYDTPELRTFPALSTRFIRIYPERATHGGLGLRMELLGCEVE

T3: NRP-1 (control protein in the fluorescence polarization assay) (UniProt O14786)
T3 sequence (looked up): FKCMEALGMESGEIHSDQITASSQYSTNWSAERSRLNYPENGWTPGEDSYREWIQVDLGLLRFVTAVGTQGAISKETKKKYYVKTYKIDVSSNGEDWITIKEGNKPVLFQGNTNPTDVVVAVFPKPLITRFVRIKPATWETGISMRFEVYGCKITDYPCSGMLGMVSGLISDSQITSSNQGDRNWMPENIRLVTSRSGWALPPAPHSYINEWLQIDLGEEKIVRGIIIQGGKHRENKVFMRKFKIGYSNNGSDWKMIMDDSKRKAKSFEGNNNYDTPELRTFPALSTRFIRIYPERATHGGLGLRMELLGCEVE

B1: T7 phage displaying … (SEQ ID NO: 182) (peptide)
peptide: CQRGTRSRC
B2: T7 phage displaying … (SEQ ID NO: 177) (peptide)
peptide: CTRGSRSKC
B3: T7 phage displaying … (SEQ ID NO: 183) (peptide)
peptide: CVRGGRARC
B4: T7 phage displaying … (SEQ ID NO: 184) (peptide)
peptide: CARGKRSLC
B5: T7 phage displaying the TT1 peptide … (SEQ ID NO: 3) (peptide)
peptide: CKRGARSTC
B6: T7 phage displaying the LyP-1 peptide … (SEQ ID NO: 7) (peptide)
peptide: CGNKRTRGC
B7: T7 phage displaying RMRRIDR (SEQ ID NO: 190) (peptide)
peptide: RMRRIDR
notes: also called phage clone selected on NRP-1 b1b2 domain
B8: T7 phage displaying SGVSRDR (SEQ ID NO: 191) (peptide)
peptide: SGVSRDR
notes: as for B7
B9: T7 phage displaying SMNEVRKR (SEQ ID NO: 192) (peptide)
peptide: SMNEVRKR
notes: as for B7
B10: T7 phage displaying SRLGRMR (SEQ ID NO: 193) (peptide)
peptide: SRLGRMR
notes: as for B7
B11: synthetic RPARPAR peptide (SEQ ID NO: 14) (peptide)
peptide: RPARPAR
B12: T7 phage displaying the TT1 variant with cysteines replaced by alanines, … (SEQ ID NO: 2) (peptide)
peptide: AKRGARSTA
B13: T7 phage displaying GRGGRSRKLAAALE (SEQ ID NO: 161) (peptide)
peptide: GRGGRSRKLAAALE
notes: the C-terminal KLAAALE element is encoded by the phage genomic DNA; also called RGXRS-displaying phage
B14: T7 phage displaying RKRGGRS (SEQ ID NO: 166) (peptide)
peptide: RKRGGRS
notes: also called RGXRS-displaying phage
B15: T7 phage displaying … (SEQ ID NO: 176) (peptide)
peptide: CARGARTKC
B16: T7 phage displaying … (SEQ ID NO: 178) (peptide)
peptide: CKRGNRSVC
B17: T7 phage displaying … (SEQ ID NO: 181) (peptide)
peptide: CKRGSRSSC

What was measured:
[1] = biological target: T1, recombinant 6x-His-tagged p32 protein …; experiment: T7 phage clone binding to p32-coated magnetic beads
[2] = biological target: T1, recombinant 6x-His-tagged p32 protein …; experiment: T7 phage clone binding to immobilized p32 (FIG. 3)
[3] = biological target: T1, recombinant 6x-His-tagged p32 protein …; experiment: T7 phage on p32-coated magnetic beads, before trypsin treatment (FIG. 9)
[4] = biological target: T1, recombinant 6x-His-tagged p32 protein …; experiment: T7 phage binding to immobilized p32
[5] = biological target: T2, ligand-binding b1b2 domain of the cell and tissue penetration receptor NRP-1; experiment: T7 phage clone binding to immobilized NRP-1 b1b2 domain (FIG. 3)
[6] = biological target: T3, NRP-1 (control protein in the fluorescence polarization assay); experiment: fluorescence polarization assay (FIG. 4B)
[7] = biological target: T1, recombinant 6x-His-tagged p32 protein …; experiment: phage clones on p32-coated magnetic microbeads (FIG. 10)

Binder	binding [1]	other results
B1	binds	
B2	binds	
B3	binds	
B4	binds	
B5	binds	binding [2]: binds; binding [3]: binds
B6		binding [4]: binds
B7		binding [5]: binds
B8		binding [5]: binds
B9		binding [5]: binds
B10		binding [5]: binds
B11		binding [6]: binds
B12		binding [7]: binds
B13	binds	
B14	binds	
B15	binds	
B16	binds	
B17	binds	

Source: patent publication US20210188909A1 (SANFORD BURNHAM PREBYS MEDICAL DISCOVERY INSTITUTE, published 2021)
